Data as given in the supplement of paper PMC10849652.
The list shows a part of the results.

Amino acid sequences for entries named in this document (tags omitted). A change or cut given only in a name is not applied to a line headed by its entry.
UniProt Q13615: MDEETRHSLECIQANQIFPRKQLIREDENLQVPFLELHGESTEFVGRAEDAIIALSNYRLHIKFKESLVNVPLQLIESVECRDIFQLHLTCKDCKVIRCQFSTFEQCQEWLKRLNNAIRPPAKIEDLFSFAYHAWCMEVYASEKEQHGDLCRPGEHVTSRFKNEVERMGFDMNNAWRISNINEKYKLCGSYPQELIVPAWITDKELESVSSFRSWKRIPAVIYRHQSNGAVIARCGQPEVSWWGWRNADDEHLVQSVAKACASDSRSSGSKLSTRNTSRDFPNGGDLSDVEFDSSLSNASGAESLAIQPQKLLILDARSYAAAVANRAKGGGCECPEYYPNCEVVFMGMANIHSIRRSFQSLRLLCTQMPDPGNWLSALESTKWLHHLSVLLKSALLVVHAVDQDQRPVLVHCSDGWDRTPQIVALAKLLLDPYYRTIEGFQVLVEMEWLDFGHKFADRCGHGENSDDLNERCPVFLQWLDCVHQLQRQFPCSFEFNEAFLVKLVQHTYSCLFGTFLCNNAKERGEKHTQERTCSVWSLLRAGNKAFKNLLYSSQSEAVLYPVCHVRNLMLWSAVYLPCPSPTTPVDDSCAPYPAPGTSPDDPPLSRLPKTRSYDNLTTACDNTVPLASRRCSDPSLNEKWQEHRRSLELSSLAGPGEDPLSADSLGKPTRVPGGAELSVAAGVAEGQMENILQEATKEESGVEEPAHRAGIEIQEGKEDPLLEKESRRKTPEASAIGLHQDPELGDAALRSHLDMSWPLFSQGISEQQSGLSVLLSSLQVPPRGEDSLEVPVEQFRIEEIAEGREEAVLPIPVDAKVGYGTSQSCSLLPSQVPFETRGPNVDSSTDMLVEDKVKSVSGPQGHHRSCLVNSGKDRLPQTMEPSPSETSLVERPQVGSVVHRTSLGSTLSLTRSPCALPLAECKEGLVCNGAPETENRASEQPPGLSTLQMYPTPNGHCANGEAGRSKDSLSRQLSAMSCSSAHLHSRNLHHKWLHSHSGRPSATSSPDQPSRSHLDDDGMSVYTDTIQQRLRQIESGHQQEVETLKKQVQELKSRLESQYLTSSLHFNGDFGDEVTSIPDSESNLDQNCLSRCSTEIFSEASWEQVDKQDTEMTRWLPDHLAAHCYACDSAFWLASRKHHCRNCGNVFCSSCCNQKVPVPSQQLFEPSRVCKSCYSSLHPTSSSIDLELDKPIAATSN
UniProt Q9BTC8: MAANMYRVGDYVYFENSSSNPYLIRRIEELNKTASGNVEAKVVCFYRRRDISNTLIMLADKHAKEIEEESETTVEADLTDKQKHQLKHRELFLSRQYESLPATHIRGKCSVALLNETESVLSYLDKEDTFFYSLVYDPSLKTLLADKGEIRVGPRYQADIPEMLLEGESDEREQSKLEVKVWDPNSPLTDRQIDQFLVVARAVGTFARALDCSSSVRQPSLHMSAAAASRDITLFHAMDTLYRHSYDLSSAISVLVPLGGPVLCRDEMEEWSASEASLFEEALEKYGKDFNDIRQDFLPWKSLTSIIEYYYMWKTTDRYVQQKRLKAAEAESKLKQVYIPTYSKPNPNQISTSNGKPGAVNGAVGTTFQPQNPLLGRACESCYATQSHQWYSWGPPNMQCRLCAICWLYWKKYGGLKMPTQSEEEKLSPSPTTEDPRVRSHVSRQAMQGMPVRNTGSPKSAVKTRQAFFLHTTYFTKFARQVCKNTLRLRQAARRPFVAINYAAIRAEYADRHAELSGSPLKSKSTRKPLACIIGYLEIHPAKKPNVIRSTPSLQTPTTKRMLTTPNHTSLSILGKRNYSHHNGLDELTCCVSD
UniProt Q96E29: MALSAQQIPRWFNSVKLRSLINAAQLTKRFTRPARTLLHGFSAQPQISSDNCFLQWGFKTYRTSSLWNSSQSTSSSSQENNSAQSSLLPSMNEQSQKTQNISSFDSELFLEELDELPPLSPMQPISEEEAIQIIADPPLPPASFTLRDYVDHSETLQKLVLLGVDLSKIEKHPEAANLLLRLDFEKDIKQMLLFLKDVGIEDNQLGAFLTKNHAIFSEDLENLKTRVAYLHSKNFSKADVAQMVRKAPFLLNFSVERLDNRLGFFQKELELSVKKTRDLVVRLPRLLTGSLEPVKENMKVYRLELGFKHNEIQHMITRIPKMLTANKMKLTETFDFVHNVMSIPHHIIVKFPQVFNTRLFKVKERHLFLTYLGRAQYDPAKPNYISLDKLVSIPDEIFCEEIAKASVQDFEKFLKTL
UniProt Q6P444: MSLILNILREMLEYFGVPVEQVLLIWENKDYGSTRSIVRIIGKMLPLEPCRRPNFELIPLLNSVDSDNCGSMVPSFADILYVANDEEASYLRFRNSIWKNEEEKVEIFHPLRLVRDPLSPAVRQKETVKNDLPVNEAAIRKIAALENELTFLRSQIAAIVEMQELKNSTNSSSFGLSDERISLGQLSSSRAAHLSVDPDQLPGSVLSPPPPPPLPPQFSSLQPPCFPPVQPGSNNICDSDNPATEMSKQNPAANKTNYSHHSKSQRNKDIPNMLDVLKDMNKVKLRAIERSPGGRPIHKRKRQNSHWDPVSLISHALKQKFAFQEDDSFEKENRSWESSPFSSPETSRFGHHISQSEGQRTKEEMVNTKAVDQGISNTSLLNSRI
UniProt P00846: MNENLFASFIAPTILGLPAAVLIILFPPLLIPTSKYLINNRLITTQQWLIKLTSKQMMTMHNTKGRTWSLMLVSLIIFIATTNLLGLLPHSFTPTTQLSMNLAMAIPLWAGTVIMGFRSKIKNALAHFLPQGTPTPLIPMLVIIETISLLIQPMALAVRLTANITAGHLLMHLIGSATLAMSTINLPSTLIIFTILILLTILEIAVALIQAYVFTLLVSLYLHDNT
UniProt P46199: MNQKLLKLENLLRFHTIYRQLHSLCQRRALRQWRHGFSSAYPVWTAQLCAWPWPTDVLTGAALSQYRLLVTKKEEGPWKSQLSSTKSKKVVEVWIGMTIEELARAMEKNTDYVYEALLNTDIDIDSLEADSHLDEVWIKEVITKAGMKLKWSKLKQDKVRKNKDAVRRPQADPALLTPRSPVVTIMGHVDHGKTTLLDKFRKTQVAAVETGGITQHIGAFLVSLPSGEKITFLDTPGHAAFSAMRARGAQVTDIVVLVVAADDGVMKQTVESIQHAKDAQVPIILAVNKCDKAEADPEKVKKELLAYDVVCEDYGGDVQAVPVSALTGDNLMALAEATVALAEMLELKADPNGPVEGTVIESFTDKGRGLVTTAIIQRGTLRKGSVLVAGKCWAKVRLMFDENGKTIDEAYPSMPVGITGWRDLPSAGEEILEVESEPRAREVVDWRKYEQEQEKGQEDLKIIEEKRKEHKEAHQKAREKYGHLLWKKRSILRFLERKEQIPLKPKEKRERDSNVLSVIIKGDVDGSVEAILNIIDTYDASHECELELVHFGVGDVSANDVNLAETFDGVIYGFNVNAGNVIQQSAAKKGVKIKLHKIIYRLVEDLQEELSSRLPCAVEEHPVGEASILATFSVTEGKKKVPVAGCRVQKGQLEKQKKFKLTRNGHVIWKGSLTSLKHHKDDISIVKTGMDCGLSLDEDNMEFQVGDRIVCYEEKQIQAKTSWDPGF
UniProt P42898: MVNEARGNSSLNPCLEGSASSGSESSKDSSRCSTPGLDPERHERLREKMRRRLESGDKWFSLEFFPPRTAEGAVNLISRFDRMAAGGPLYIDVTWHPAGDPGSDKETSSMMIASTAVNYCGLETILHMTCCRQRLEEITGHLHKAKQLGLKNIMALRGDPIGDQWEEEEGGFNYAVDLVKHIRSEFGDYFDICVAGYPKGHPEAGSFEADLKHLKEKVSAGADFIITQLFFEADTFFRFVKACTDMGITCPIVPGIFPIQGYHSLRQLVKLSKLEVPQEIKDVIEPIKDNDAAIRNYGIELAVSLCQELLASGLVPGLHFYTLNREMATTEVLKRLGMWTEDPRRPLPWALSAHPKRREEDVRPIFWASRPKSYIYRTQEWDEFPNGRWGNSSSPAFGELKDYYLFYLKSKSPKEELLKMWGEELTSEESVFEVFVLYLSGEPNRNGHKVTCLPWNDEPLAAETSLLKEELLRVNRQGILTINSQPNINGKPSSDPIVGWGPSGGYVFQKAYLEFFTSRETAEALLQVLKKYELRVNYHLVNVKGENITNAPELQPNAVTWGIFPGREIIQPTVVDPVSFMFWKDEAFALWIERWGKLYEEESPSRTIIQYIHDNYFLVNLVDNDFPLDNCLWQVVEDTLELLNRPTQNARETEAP
UniProt P49914: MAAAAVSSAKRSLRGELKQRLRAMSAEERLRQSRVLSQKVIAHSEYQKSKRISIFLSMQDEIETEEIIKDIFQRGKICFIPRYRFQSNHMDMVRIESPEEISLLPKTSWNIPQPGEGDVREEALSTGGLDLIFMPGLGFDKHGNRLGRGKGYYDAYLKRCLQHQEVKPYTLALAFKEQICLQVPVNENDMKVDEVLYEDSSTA
UniProt P26038, whole entry, looked up: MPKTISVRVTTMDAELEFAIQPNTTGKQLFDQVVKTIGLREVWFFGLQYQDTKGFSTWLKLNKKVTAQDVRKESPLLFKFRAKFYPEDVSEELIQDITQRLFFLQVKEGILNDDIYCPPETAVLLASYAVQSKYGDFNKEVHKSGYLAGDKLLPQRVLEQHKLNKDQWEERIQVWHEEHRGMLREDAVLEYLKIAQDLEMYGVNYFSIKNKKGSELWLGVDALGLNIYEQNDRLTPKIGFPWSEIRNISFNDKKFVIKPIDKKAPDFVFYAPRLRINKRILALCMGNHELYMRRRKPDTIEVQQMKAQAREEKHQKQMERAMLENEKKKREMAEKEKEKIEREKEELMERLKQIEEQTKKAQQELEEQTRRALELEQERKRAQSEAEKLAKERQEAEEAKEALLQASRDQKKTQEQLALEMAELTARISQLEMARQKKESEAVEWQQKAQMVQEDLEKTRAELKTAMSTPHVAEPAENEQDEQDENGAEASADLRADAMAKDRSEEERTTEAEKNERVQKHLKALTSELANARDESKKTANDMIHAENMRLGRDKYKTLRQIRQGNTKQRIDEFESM

Columns and labels:
Assay in all cases: log2 fold change, soluble protein after heating vs DMSO (PISA); higher = thermal stabilisation; K562 lysate, 10 uM; active = over 0.2 and 3.5 SD of the protein, either way, in both replicates (recomputed)
vemurafenib = compound: CCCS(=O)(=O)Nc1ccc(F)c(C(=O)c2c[nH]c3ncc(-c4ccc(Cl)cc4)cc23)c1F [vemurafenib]
How it was run: (§1)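 Quantification was by TMTpro 16plex LC-MS/MS with equalised channel sums, applied to the supernatant after 21,000xg for 90 min. Samples were crude K562 extract at 1 mg/mL protein in PBS pH 7.4 with 1 mM MgCl2, treated with 10 μM compound for 30 min, heated for 3 min across 48°C-58°C, pooled and brought to 0.5% NP-40 at 4°C. Values are log-two fold changes in thermal stability relative to solvent controls, from duplicates.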

[1] = compound: CCCS(=O)(=O)Nc1ccc(F)c(C(=O)c2c[nH]c3ncc(Cl)cc23)c1F
How it was run: as §1

barasertib = compound: CCN(CCCOc1ccc2c(Nc3cc(CC(=O)Nc4cccc(F)c4)[nH]n3)ncnc2c1)CCOP(=O)(O)O [barasertib]
How it was run: as §1

[2] = compound: CC[C@@H]1C(=O)N(C)c2cnc(Nc3ccc(C(=O)NC4CCN(C)CC4)cc3OC)nc2N1C1CCCC1
How it was run: as §1

volasertib = compound: CC[C@@H]1C(=O)N(C)c2cnc(Nc3ccc(C(=O)N[C@H]4CC[C@H](N5CCN(CC6CC6)CC5)CC4)cc3OC)nc2N1C(C)C [volasertib]
How it was run: as §1

[3] = compound: CCn1c(C(=O)N(C2CC2)C2CC2)cc2c3c(ncn3C)c(Nc3cc(C)n(C)n3)nc21
How it was run: as §1

[4] = compound: CCn1cc(-c2ccnc3[nH]c(-c4cccc(CN(C)C)c4)cc23)c(-c2ccc(NC(=O)N(C)C)cc2)n1
How it was run: as §1

[5] = compound: CN1CCC(CNc2ccc3ncc(-c4cccc(OC(F)(F)F)c4)n3n2)CC1
How it was run: as §1

saracatinib = compound: CN1CCN(CCOc2cc(OC3CCOCC3)c3c(Nc4c(Cl)ccc5c4OCO5)ncnc3c2)CC1 [saracatinib]
How it was run: as §1

sotrastaurin = compound: CN1CCN(c2nc(C3=C(c4c[nH]c5ccccc45)C(=O)NC3=O)c3ccccc3n2)CC1 [sotrastaurin]
How it was run: as §1

alvocidib = compound: CN1CC[C@H](c2c(O)cc(O)c3c(=O)cc(-c4ccccc4Cl)oc23)[C@H](O)C1 [alvocidib]
How it was run: as §1

Tubastatin A = compound: CN1CCc2c(c3ccccc3n2Cc2ccc(C(=O)NO)cc2)C1 [Tubastatin A]
How it was run: as §1

[6] = compound: CNC(=O)C1=CC=CC=C1NC2=NC(=NC=C2Cl)NC3=C(C=C(C=C3)N4CCOCC4)OC
How it was run: as §1

defactinib = compound: CNC(=O)c1ccc(Nc2ncc(C(F)(F)F)c(NCc3nccnc3N(C)S(C)(=O)=O)n2)cc1 [defactinib]
How it was run: as §1

[7] = compound: CNc1nc(-c2ccc3c(N)n[nH]c3c2)cc(N2C[C@@H](C(=O)NC3CCCCC3)CC[C@H]2C)n1
How it was run: as §1

encorafenib = compound: COC(=O)N[C@@H](C)CNc1nccc(-c2cn(C(C)C)nc2-c2cc(Cl)cc(NS(C)(=O)=O)c2F)n1 [encorafenib]
How it was run: as §1

[8] = compound: COC(=O)[C@H](CCSC)NC(=O)C1=C(C=C(C=C1)NC[C@H](CS)N)C2=CC=CC=C2
How it was run: as §1

alisertib = compound: COc1cc(Nc2ncc3c(n2)-c2ccc(Cl)cc2C(c2c(F)cccc2OC)=NC3)ccc1C(=O)O [alisertib]
How it was run: as §1

[9] = compound: COc1cc2nc(-c3cc(F)ccc3O)nc(N[C@@H]3CNC[C@H]3C(C)(C)O)c2cc1OC
How it was run: as §1

gefitinib = compound: COc1cc2ncnc(Nc3ccc(F)c(Cl)c3)c2cc1OCCCN1CCOCC1 [gefitinib]
How it was run: as §1

Measured: log2 fold change

MRPS18C (UniProt Q9Y3D5)
inactive: vemurafenib -0.003 | [1] -0.011 | barasertib 0.045 | [2] -0.058 | volasertib 0.034 | [3] 0.008 | [4] -0.097 | [5] 0.031 | saracatinib 0.082 | sotrastaurin 0 | alvocidib 0.027 | Tubastatin A -0.002 | [6] 0.081 | defactinib -0.23 | [7] 0.008 | encorafenib 0.012 | [8] -0.089 | alisertib 0.081 | [9] -0.056 | gefitinib -0.045

MRPS18B (UniProt Q9Y676)
inactive: vemurafenib 0.084 | [1] 0.05 | barasertib 0.055 | [2] 0.02 | volasertib -0.007 | [3] -0.15 | [4] 0.004 | [5] -0.071 | saracatinib 0.093 | sotrastaurin -0.13 | alvocidib -0.061 | Tubastatin A 0.008 | [6] 0.052 | defactinib 0.028 | [7] 0.019 | encorafenib -0.039 | [8] -0.126 | alisertib 0.017 | [9] -0.01 | gefitinib -0.076

MRPS34 (UniProt P82930)
inactive: vemurafenib 0.053 | [1] 0.053 | barasertib 0.041 | [2] -0.07 | volasertib 0.014 | [3] 0.033 | [4] 0.024 | [5] -0.022 | saracatinib -0.002 | sotrastaurin 0.02 | alvocidib 0.015 | Tubastatin A -0.089 | [6] 0.012 | defactinib 0.038 | [7] 0.009 | encorafenib 0.024 | [8] -0.006 | alisertib 0.001 | [9] -0.082 | gefitinib -0.012

MTMR3 (UniProt Q13615)
inactive: vemurafenib 0.046 | [1] 0.024 | barasertib 0.012 | [2] 0.025 | volasertib -0.041 | [3] 0.053 | [4] -0.039 | [5] -0.033 | saracatinib 0.02 | sotrastaurin -0.069 | alvocidib 0.056 | Tubastatin A -0.04 | [6] 0.06 | defactinib -0.038 | [7] -0.009 | encorafenib 0.073 | [8] -0.033 | alisertib -0.01 | [9] -0.027 | gefitinib 0.019

MTA3 (UniProt Q9BTC8)
inactive: vemurafenib 0.019 | [1] 0.002 | barasertib 0.017 | [2] 0.023 | volasertib -0.022 | [3] -0.055 | [4] -0.017 | [5] -0.097 | saracatinib 0.036 | sotrastaurin -0.006 | alvocidib -0.016 | Tubastatin A -0.013 | [6] 0.019 | defactinib 0.044 | [7] -0.043 | encorafenib 0.041 | [8] 0.091 | alisertib 0.077 | [9] 0.025 | gefitinib -0.059

MTERF3 (UniProt Q96E29)
inactive: vemurafenib 0.043 | [1] -0.063 | barasertib 0.063 | [2] -0.059 | volasertib 0.033 | [3] -0.134 | [4] -0.039 | [5] -0.082 | saracatinib 0.072 | sotrastaurin -0.008 | alvocidib 0 | Tubastatin A 0.023 | [6] 0.009 | defactinib 0.041 | [7] 0.021 | encorafenib 0.129 | [8] 0.045 | alisertib 0.004 | [9] 0.101 | gefitinib 0.029

MTFR2 (UniProt Q6P444)
inactive: vemurafenib 0.079 | [1] 0.116 | barasertib 0.051 | [2] 0.003 | volasertib -0.024 | [3] 0.039 | [4] 0.044 | [5] -0.264 | saracatinib 0.1 | sotrastaurin 0.03 | alvocidib 0.067 | Tubastatin A -0.117 | [6] 0.034 | defactinib 0.01 | [7] -0.054 | encorafenib 0.008 | [8] -0.09 | alisertib -0.034 | [9] 0.059 | gefitinib 0.054

MRPL58 (UniProt Q14197)
inactive: vemurafenib 0.104 | [1] -0.017 | barasertib 0.033 | [2] -0.033 | volasertib -0.043 | [3] 0.004 | [4] 0.148 | [5] -0.151 | saracatinib 0.04 | sotrastaurin 0.019 | alvocidib 0 | Tubastatin A -0.065 | [6] 0.027 | defactinib -0.045 | [7] 0.033 | encorafenib 0.011 | [8] -0.078 | alisertib -0.021 | [9] -0.02 | gefitinib -0.04

MT-ATP6 (UniProt P00846)
inactive: vemurafenib -0.096 | [1] -0.026 | barasertib 0.288 | [2] -0.095 | volasertib -0.009 | [3] 0.404 | [4] -0.081 | [5] 0.078 | saracatinib -0.13 | sotrastaurin -0.023 | alvocidib -0.017 | Tubastatin A -0.012 | [6] 0.002 | defactinib 0.055 | [7] -0.013 | encorafenib -0.099 | [8] -0.074 | alisertib -0.069 | [9] 0.025 | gefitinib 0

MRPL32 (UniProt Q9BYC8)
inactive: vemurafenib 0.003 | [1] 0.008 | barasertib -0.025 | [2] 0.112 | volasertib 0.014 | [3] -0.018 | [4] 0.028 | [5] -0.029 | saracatinib 0.03 | sotrastaurin -0.082 | alvocidib -0.017 | Tubastatin A 0.021 | [6] 0.037 | defactinib 0.006 | [7] 0.129 | encorafenib 0.028 | [8] -0.167 | alisertib -0.05 | [9] -0.017 | gefitinib -0.068

MTIF2 (UniProt P46199)
inactive: vemurafenib 0.025 | [1] 0.025 | barasertib 0.048 | [2] -0.005 | volasertib -0.055 | [3] -0.008 | [4] 0.046 | [5] -0.135 | saracatinib 0.03 | sotrastaurin -0.001 | alvocidib 0.049 | Tubastatin A -0.087 | [6] 0.006 | defactinib 0.068 | [7] -0.013 | encorafenib 0.015 | [8] 0.029 | alisertib -0.008 | [9] -0.017 | gefitinib -0.015

MRPL3 (UniProt P09001)
inactive: vemurafenib 0.064 | [1] 0.013 | barasertib -0.004 | [2] -0.001 | volasertib -0.009 | [3] 0.007 | [4] -0.199 | [5] 0.042 | saracatinib -0.068 | sotrastaurin 0.023 | alvocidib 0 | Tubastatin A -0.059 | [6] -0.003 | defactinib 0.015 | [7] 0.099 | encorafenib 0.036 | [8] 0.05 | alisertib 0.057 | [9] -0.025 | gefitinib -0.028

MTHFR isoform 2 (UniProt P42898)
inactive: vemurafenib -0.009 | [1] 0.006 | barasertib 0.032 | [2] -0.013 | volasertib -0.023 | [3] -0.002 | [4] 0.021 | [5] 0.035 | saracatinib 0.002 | sotrastaurin 0.015 | alvocidib -0.008 | Tubastatin A 0.045 | [6] -0.001 | defactinib -0.028 | [7] -0.001 | encorafenib -0.02 | [8] 0.087 | alisertib 0.011 | [9] 0 | gefitinib -0.002

MTHFS (UniProt P49914)
inactive: vemurafenib 0.066 | [1] 0.006 | barasertib -0.075 | [2] 0.004 | volasertib -0.02 | [3] -0.113 | [4] -0.037 | [5] -0.017 | saracatinib -0.015 | sotrastaurin 0.133 | alvocidib -0.013 | Tubastatin A -0.045 | [6] 0 | defactinib 0 | [7] -0.019 | encorafenib -0.005 | [8] 0.111 | alisertib -0.017 | [9] 0.006 | gefitinib -0.011

MTDH (UniProt E5RJU9)
inactive: vemurafenib 0.133 | [1] -0.307 | barasertib -0.102 | [2] -0.018 | volasertib -0.185 | [3] 0.053 | [4] -0.133 | [5] -0.051 | saracatinib 0.063 | sotrastaurin 0.102 | alvocidib 0.041 | Tubastatin A 0.149 | [6] -0.054 | defactinib 0.033 | [7] 0.186 | encorafenib 0.192 | [8] -0.011 | alisertib -0.013 | [9] -0.015 | gefitinib 0.238

MSN (UniProt P26038)
inactive: vemurafenib -0.013 | [1] -0.013 | barasertib -0.027 | [2] -0.013 | volasertib 0.006 | [3] -0.002 | [4] 0.051 | [5] -0.005 | saracatinib -0.007 | sotrastaurin 0.001 | alvocidib 0 | Tubastatin A 0.041 | [6] -0.025 | defactinib -0.019 | [7] 0.005 | encorafenib -0.031 | [8] 0.022 | alisertib 0.014 | [9] -0.004 | gefitinib -0.005
